Results: PMC4132792, “Engagement of Nucleotide-binding Oligomerization Domain-containing Protein 1 (NOD1) by Receptor-interacting Protein 2 (RIP2) Is Insufficient for Signal Transduction*” (The Journal of Biological Chemistry, 2014)
These are yes or no findings as the source states them, for the method shown. Sequences can lack the tags named with a protein. Values belong to the binder of their own block, whether it stands above or below them.

Key:
[1] = target: His6-tagged recombinant NOD1 CARD (residues 15-110), wild type (human) (UniProt Q9Y239); assay: SEC; Superdex 75 HiLoad 16/60, 25 mM sodium phosphate, 100 mM NaCl, with 2 mM DTT; monomer and dimer; both purified
[2] = target: His6-tagged recombinant NOD1 CARD (residues 15-110) A55V (human) (UniProt Q9Y239); assay: as above
[3] = target: His6-tagged recombinant NOD1 CARD (residues 15-110) D48K (human) (UniProt Q9Y239); assay: as above
[4] = target: His6-tagged recombinant NOD1 CARD (residues 15-110) C39S (human) (UniProt Q9Y239); assay: as above
[5] = target: His6-tagged recombinant NOD1 CARD (residues 15-110) C39S (human) (UniProt Q9Y239); assay: SEC; Superdex 75 HiLoad 16/60, 25 mM sodium phosphate, 100 mM NaCl, no reducing agent; monomer and dimer; both purified
[6] = target: His6-tagged recombinant NOD1 CARD (residues 15-110) E53K (human) (UniProt Q9Y239); assay: SEC; Superdex 75 HiLoad 16/60, 25 mM sodium phosphate, 100 mM NaCl, with 2 mM DTT; monomer and dimer; both purified
[7] = target: His6-tagged recombinant NOD1 CARD (residues 15-110) E56K (human) (UniProt Q9Y239); assay: as above

B2: His6-tagged recombinant NOD1 CARD (residues 15-110) A55V (domain or fragment, human, UniProt Q9Y239-1 15-110, looked up)
chain: ESHPHIQLLKSNRELLVTHIRNTQCLVDNLLKNDYFSAEDVEIVCACPTQPDKVRKILDLVQSKGEEVSEFFLYLLQQLADAYVDLRPWLLEIGFS
notes: NOD1 CARD domain, human, residues 15-110, A55V (a polymorphism)
binding [2]: no binding (condition: with 2 mM DTT)

B3: His6-tagged recombinant NOD1 CARD (residues 15-110) D48K (domain or fragment, human, UniProt Q9Y239-1 15-110, looked up)
chain: ESHPHIQLLKSNRELLVTHIRNTQCLVDNLLKNKYFSAEDAEIVCACPTQPDKVRKILDLVQSKGEEVSEFFLYLLQQLADAYVDLRPWLLEIGFS
notes: NOD1 CARD domain, human, residues 15-110, D48K
binding [3]: no binding (condition: with 2 mM DTT)

B4: His6-tagged recombinant NOD1 CARD (residues 15-110) C39S (domain or fragment, UniProt Q9Y239-1 15-110)
chain: ESHPHIQLLKSNRELLVTHIRNTQSLVDNLLKNDYFSAEDAEIVCACPTQPDKVRKILDLVQSKGEEVSEFFLYLLQQLADAYVDLRPWLLEIGFS
binding [4]: no binding | binding [5]: no binding

Next, values leading:

binding [1]: no binding (condition: with 2 mM DTT)
B1: His6-tagged recombinant NOD1 CARD (residues 15-110), wild type (domain or fragment, human, UniProt Q9Y239-1 15-110, looked up)
chain: ESHPHIQLLKSNRELLVTHIRNTQCLVDNLLKNDYFSAEDAEIVCACPTQPDKVRKILDLVQSKGEEVSEFFLYLLQQLADAYVDLRPWLLEIGFS
notes: NOD1 CARD domain, human, residues 15-110; the dimer is stabilised by an interprotomer disulfide bond through Cys-39 (from the cited crystal structures); also called wild-type NOD1 CARD; wild-type NOD1

binding [6]: no binding (condition: with 2 mM DTT)
B5: His6-tagged recombinant NOD1 CARD (residues 15-110) E53K (domain or fragment, human, UniProt Q9Y239-1 15-110, looked up)
chain: ESHPHIQLLKSNRELLVTHIRNTQCLVDNLLKNDYFSAKDAEIVCACPTQPDKVRKILDLVQSKGEEVSEFFLYLLQQLADAYVDLRPWLLEIGFS
notes: NOD1 CARD domain, human, residues 15-110, E53K

binding [7]: no binding (condition: with 2 mM DTT)
B6: His6-tagged recombinant NOD1 CARD (residues 15-110) E56K (domain or fragment, human, UniProt Q9Y239-1 15-110, looked up)
chain: ESHPHIQLLKSNRELLVTHIRNTQCLVDNLLKNDYFSAEDAKIVCACPTQPDKVRKILDLVQSKGEEVSEFFLYLLQQLADAYVDLRPWLLEIGFS
notes: NOD1 CARD domain, human, residues 15-110, E56K
